No constants are given. Whether binding was seen depends on the method and setting. Some results given as binding are weak or reduced against the parent protein; the word gives no strength.
How the values were obtained:
[1] = biological target: untagged full-length human Ihh (NP-002172) (human) (UniProt Q14623); test: immunofluorescence on COS cells transfected with full length human Ihh
[2] = biological target: endogenous mouse Hh (Shh) in mouse embryo and skin tissue (mouse) (UniProt Q62226); test: IHC on mouse skin (endogenous Shh)
mouse Shh-N (mouse) = mouse Shh-N (mouse) (UniProt Q62226); test: IF, IHC and Western blotting (data not shown)
[3] = biological target: endogenous mouse Hh (Shh) in mouse embryo and skin tissue (mouse) (UniProt Q62226); test: IHC on mouse embryo sections
[4] = biological target: endogenous mouse Hh (Shh) in mouse embryo and skin tissue (mouse) (UniProt Q62226); test: IHC on FFPE mouse embryo sections
[5] = biological target: untagged full-length human Ihh (NP-002172) (human) (UniProt Q14623); test: IF, IHC (data not shown) and Western blotting of transfected full-length clones
[6] = biological target: untagged full-length human Ihh (NP-002172) (human) (UniProt Q14623); test: Western blot of 293 cells transfected with human Ihh full length protein
[7] = biological target: endogenous mouse Hh (Shh) in mouse embryo and skin tissue (mouse) (UniProt Q62226); test: IHC on 4-week mouse skin, anagen hair follicles

Sequences of proteins named here, by UniProt entry; tags and fusion partners are left off. Residues count along the entry.
UniProt Q14623, residues 28-411: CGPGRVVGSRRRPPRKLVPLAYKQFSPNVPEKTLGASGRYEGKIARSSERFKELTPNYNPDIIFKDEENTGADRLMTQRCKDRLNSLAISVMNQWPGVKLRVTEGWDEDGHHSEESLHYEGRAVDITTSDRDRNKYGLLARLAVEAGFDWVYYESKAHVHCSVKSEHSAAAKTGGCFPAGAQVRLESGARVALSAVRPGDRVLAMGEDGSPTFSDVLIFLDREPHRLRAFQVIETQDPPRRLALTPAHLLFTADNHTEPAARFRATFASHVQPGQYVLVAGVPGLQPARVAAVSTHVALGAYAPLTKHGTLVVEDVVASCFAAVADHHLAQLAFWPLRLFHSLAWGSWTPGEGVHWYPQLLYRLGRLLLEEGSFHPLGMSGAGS
UniProt Q62226, residues 25-198: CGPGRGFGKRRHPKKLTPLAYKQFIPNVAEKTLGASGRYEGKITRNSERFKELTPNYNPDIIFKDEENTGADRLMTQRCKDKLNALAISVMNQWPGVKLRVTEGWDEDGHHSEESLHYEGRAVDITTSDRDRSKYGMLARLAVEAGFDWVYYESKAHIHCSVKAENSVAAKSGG

binding [1]: binds
binding [2]: binds
binding (mouse Shh-N (mouse)): binds
binding [3]: binds
binding [4]: binds
binding [5]: binds
binding [6]: binds
binding [7]: binds
B1: 95.9 rabbit monoclonal anti-Hh antibody (antibody, V domains shown)
VH: QSVKESGGGLVQPEGSLTLTCTVSGFSLSSYDMSWVRQAPGSGLEWIGGILSGGSAYYASWAKSRSTITKNTNLNTVTLKMTSLTAADTATYFCARGIYPVGTNYNIWGPGTLVTVSS
VL: IAVLTQTPSPVSAAVGGTVTINCQSSPSVYSNYLAWYQQKPGQPPKLLIYYASTLASGVPSRFKGSGSGTEFTLTISDLECADAATYYCAGGYIDTSDTAFGGGTEVVVKG
